The list shows only some results of the screen, not a fair sample: it is rich in T/C values a quarter to a half above the control, in often repeated tests (any T/C) and in doses without a T/C. Further doses and runs are listed elsewhere. T/C is the treated group as % of the vehicle group. Some entries give survivors of the animals treated and no T/C: the source holds a T/C of zero for them, seemingly a mark for toxic or unscored doses. Some doses without a T/C left all or most animals alive at the check, yet need not have been tolerated: survival well below the control is almost never listed, so the zero probably covers shortened survival too. Counts of survivors are from the toxicity check (mostly the fifth day) where no day follows; animals may have died later. Schedules are NCI's codes, read here as Q, the interval in days (D) or hours (H), X, the number of doses. Some entries were tested several times; the results are listed from low to high. Where survival is the endpoint, this PubChem deposit counts one and a half times the control or more as active, and values a quarter to a half above the control carry no call in these data; other NCI protocols may use other cut-offs. Some T/C values carry the count of animals alive at the toxicity check (mostly the fifth day); without a count, all were alive then.
Test system: CD2F1 mice, L1210 leukemia ip, survival T/C
Test: NCI In Vivo Anticancer Drug Screen. Data for tumor model L1210 Leukemia (intraperitoneal) in CD2F1 (CDF1) mice
Conditions: higher T/C = longer survival
Outline: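 Tumor-bearing mice (transplanted tumor) were split into treated and vehicle control groups, and the measured endpoint of each treated group was divided by that of its vehicle controls.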

[1] = T/C endpoint: mean survival time, dose: 200.0 mg/kg/injection, schedule: Q04DX003 (ip), vehicle: saline with Tween-80
[2] = T/C endpoint: mean survival time, dose: 400.0 mg/kg/injection, schedule: Q04DX003 (ip), vehicle: saline with Tween-80
[3] = T/C endpoint: mean survival time, dose: 50.0 mg/kg/injection, schedule: Q04DX002 (ip), vehicle: saline with Tween-80
[4] = T/C endpoint: mean survival time, dose: 100.0 mg/kg/injection, schedule: Q04DX002 (ip), vehicle: saline with Tween-80
[5] = T/C endpoint: mean survival time, dose: 200.0 mg/kg/injection, schedule: Q04DX002 (ip), vehicle: saline with Tween-80
[6] = T/C endpoint: mean survival time, dose: 400.0 mg/kg/injection, schedule: Q01DX009 (ip), vehicle: saline with Tween-80
[7] = T/C endpoint: mean survival time, dose: 100.0 mg/kg/injection, schedule: Q04DX003 (ip), vehicle: saline with Tween-80
[8] = T/C endpoint: median survival time, dose: 50.0 mg/kg/injection, schedule: Q01DX005 (ip), vehicle: saline
[9] = T/C endpoint: mean survival time, dose: 200.0 mg/kg/injection, schedule: Q01DX005 (ip), vehicle: distilled water + Tween-80

O=C(CN1CC1)NCCCCCCCNC(=O)CN1CC1
T/C (T/C endpoint: mean survival time, dose: 9.7 mg/kg/injection, schedule: Q01DX001 (ip), vehicle: carboxymethylcellulose (CMC)): 136 % of control | T/C (T/C endpoint: mean survival time, dose: 22.0 mg/kg/injection, schedule: Q01DX001 (ip), vehicle: carboxymethylcellulose (CMC)): 135 % of control | T/C (T/C endpoint: mean survival time, dose: 33.0 mg/kg/injection, schedule: Q01DX001 (ip), vehicle: carboxymethylcellulose (CMC)): 139 % of control | T/C (T/C endpoint: mean survival time, dose: 75.0 mg/kg/injection, schedule: Q01DX001 (ip), vehicle: carboxymethylcellulose (CMC)): 146 % of control | survivor count (T/C endpoint: mean survival time, dose: 112.0 mg/kg/injection, schedule: Q01DX001 (ip), vehicle: carboxymethylcellulose (CMC)): 1 of 6

Cn1ccn(C2CCCCC2)c1=O
survivor count [1]: 0 of 6 | survivor count [2]: 0 of 6

CCCCCCC[CH2][Sn][CH2]CCCCCCC.Nc1ncnc2c1ncn2C1OC(CO)C2[OH+][OH+]C21 (centres undefined)
survivor count (T/C endpoint: mean survival time, dose: 50.0 mg/kg/injection, schedule: Q01DX005 (ip), vehicle: other): 5 of 6 | survivor count (T/C endpoint: mean survival time, dose: 100.0 mg/kg/injection, schedule: Q01DX005 (ip), vehicle: other): 0 of 6 | survivor count (T/C endpoint: mean survival time, dose: 200.0 mg/kg/injection, schedule: Q01DX005 (ip), vehicle: other): 0 of 6

CN(Cc1cnc2nc(N)nc(N)c2n1)c1ccc(C(=O)NC(CCC(N)=O)C(=O)O)cc1 (centres undefined)
T/C (T/C endpoint: mean survival time, dose: 25.0 mg/kg/injection, schedule: Q01DX009 (ip), vehicle: sodium bicarbonate): 139 % of control | survivor count (T/C endpoint: mean survival time, dose: 100.0 mg/kg/injection, schedule: Q01DX009 (ip), vehicle: sodium bicarbonate): 6 of 6 | T/C (T/C endpoint: mean survival time, dose: 120.0 mg/kg/injection, schedule: Q04DX003 (ip), vehicle: sodium bicarbonate): 143 % of control | survivor count (T/C endpoint: mean survival time, dose: 200.0 mg/kg/injection, schedule: Q01DX009 (ip), vehicle: sodium bicarbonate): 3 of 6

O=NN(CCCl)C(=O)Nc1ccc2[nH]c3ccccc3c2c1
T/C (T/C endpoint: mean survival time, dose: 265.0 mg/kg/injection, schedule: Q01DX009 (ip), vehicle: saline with Tween-80): 141 % of control | survivor count (T/C endpoint: mean survival time, dose: 400.0 mg/kg/injection, schedule: Q01DX009 (ip), vehicle: Klucel (hydroxypropylcellulose) (HPC)): 5 of 6 | survivor count (T/C endpoint: mean survival time, dose: 600.0 mg/kg/injection, schedule: Q01DX009 (ip), vehicle: saline with Tween-80): 0 of 6

COC1C(O)CC(=O)OC(C)C/C=C/C=C/C(OC2CCC(N(C)C)C(C)O2)C(C)CC(CC=O)C1OC1OC(C)C(OC2CC(C)(O)C(O)C(C)O2)C(N(C)C)C1O (centres undefined)
survivor count (T/C endpoint: mean survival time, dose: 800.0 mg/kg/injection, schedule: Q01DX001 (ip), vehicle: saline): 0 of 6

CN(C)CC(Cl)CCl (centres undefined)
survivor count (T/C endpoint: mean survival time, dose: 400.0 mg/kg/injection, schedule: Q01DX009 (ip), vehicle: saline): 0 of 10 and 3 of 6

CC(C)([CH2][Sn]([Cl])([Cl])[CH2]C(C)(C)c1ccccc1)c1ccccc1
survivor count (T/C endpoint: mean survival time, dose: 25.0 mg/kg/injection, schedule: Q04DX002 (ip), vehicle: saline with Tween-80): 1 of 3 | survivor count [3]: 0 of 3 | survivor count [4]: 0 of 3 | survivor count [5]: 0 of 3

CCN(CC)CCCCNc1ccc(NCCCCN(CC)CC)c2c1C(=O)c1ccccc1C2=O
survivor count (T/C endpoint: mean survival time, dose: 200.0 mg/kg/injection, schedule: Q01DX009 (ip), vehicle: saline): 0 of 6

CNCCSSCCN
survivor count (T/C endpoint: mean survival time, dose: 200.0 mg/kg/injection, schedule: Q01DX009 (ip), vehicle: saline with Tween-80): 6 of 6 | survivor count [6]: 0 of 6

Cc1nc(N)[nH]c(=O)c1NC(=O)c1ccc(N=[N+]=[N-])cc1
survivor count (T/C endpoint: mean survival time, dose: 100.0 mg/kg/injection, schedule: Q01DX001 (ip), vehicle: saline with Tween-80): 6 of 6 | survivor count (T/C endpoint: mean survival time, dose: 200.0 mg/kg/injection, schedule: Q01DX001 (ip), vehicle: saline with Tween-80): 6 of 6 | survivor count (T/C endpoint: mean survival time, dose: 400.0 mg/kg/injection, schedule: Q01DX001 (ip), vehicle: saline with Tween-80): 6 of 6

CC12CCCCC1SC(F)(F)C2(F)F (centres undefined)
survivor count [7]: 6 of 6 | survivor count [1]: 0 of 6 | survivor count [2]: 0 of 6

CN1COc2c(Cl)cc(Cl)cc2C1
survivor count [1]: 5 of 6 | survivor count [2]: 3 of 6

NC(=O)c1ccc(Cl)c(Cl)c1
survivor count [6]: 0 of 6

N#C/C(=C1C=C/C(=N\O)C(Cl)=C\1)c1ccccc1
survivor count [6]: 4 of 6

COc1ccc(C=C2C(=O)C=CC2=O)cc1O
survivor count [3]: 0 of 3 | survivor count [4]: 0 of 3 | survivor count [5]: 0 of 3

CCOP(=O)(OCC)C1=C(CC)CC1
survivor count (T/C endpoint: mean survival time, dose: 150.0 mg/kg/injection, schedule: Q01DX001 (ip), vehicle: other): 6 of 6 | survivor count (T/C endpoint: mean survival time, dose: 300.0 mg/kg/injection, schedule: Q01DX001 (ip), vehicle: other): 0 of 6

Cc1cc(C)c2ccc(N)nc2n1
survivor count (T/C endpoint: mean survival time, dose: 75.0 mg/kg/injection, schedule: Q01DX001 (ip), vehicle: saline): 0 of 6 | survivor count (T/C endpoint: mean survival time, dose: 150.0 mg/kg/injection, schedule: Q01DX001 (ip), vehicle: saline): 0 of 6 | survivor count (T/C endpoint: mean survival time, dose: 300.0 mg/kg/injection, schedule: Q01DX001 (ip), vehicle: saline): 0 of 6

CCCCN(CCCC)CC(C)(O)c1cc(-c2ccc(Cl)cc2)nc2c(C)cc(C)cc12 (centres undefined)
survivor count [2]: 6 of 6

O=NNc1cccc(NN=O)n1
T/C (T/C endpoint: median survival time, dose: 12.5 mg/kg/injection, schedule: Q01DX005 (ip), vehicle: saline): 137 % of control | T/C (T/C endpoint: median survival time, dose: 19.0 mg/kg/injection, schedule: Q01DX005 (ip), vehicle: saline): 141 % of control [5 of 6 alive] | T/C (T/C endpoint: median survival time, dose: 25.0 mg/kg/injection, schedule: Q01DX005 (ip), vehicle: saline): 127 and 138 % of control | T/C [8]: 141 and 142 % of control | T/C (T/C endpoint: median survival time, dose: 66.0 mg/kg/injection, schedule: Q01DX005 (ip), vehicle: saline): 141 % of control

[Cl][Pt+2][Cl].[NH-]CCN(CCN)CCN
survivor count (T/C endpoint: mean survival time, dose: 50.0 mg/kg/injection, schedule: Q04DX003 (ip), vehicle: saline with Tween-80): 0 of 6 | survivor count [7]: 0 of 6 | survivor count [1]: 0 of 6

Cc1cn(C2CC(OP(=O)(O)OCC3OC(n4ccc(N)nc4=O)C(O)C3O)C(CO)O2)c(=O)[nH]c1=O (centres undefined)
T/C (T/C endpoint: median survival time, dose: 20.0 mg/kg/injection, schedule: Q01DX005 (ip), vehicle: saline): 128 % of control | T/C (T/C endpoint: median survival time, dose: 40.0 mg/kg/injection, schedule: Q01DX005 (ip), vehicle: saline): 140 % of control | T/C [8]: 135 % of control | T/C (T/C endpoint: median survival time, dose: 100.0 mg/kg/injection, schedule: Q01DX005 (ip), vehicle: saline): 141 % of control | T/C (T/C endpoint: median survival time, dose: 200.0 mg/kg/injection, schedule: Q01DX005 (ip), vehicle: saline): 149 % of control

CCC1(O)C(=O)OCc2c1cc1n(c2=O)Cc2cc3cc([N+](=O)[O-])ccc3nc2-1 (centres undefined)
survivor count (T/C endpoint: median survival time, dose: 31.0 mg/kg/injection, schedule: Q04DX002 (ip), vehicle: saline with Tween-80): 4 of 6 and 6 of 6 | survivor count (T/C endpoint: median survival time, dose: 62.0 mg/kg/injection, schedule: Q04DX002 (ip), vehicle: saline with Tween-80): 4 of 6 and 6 of 6

Cc1cc(NC(=O)Nc2cc(Cl)ccc2C)no1
survivor count (T/C endpoint: mean survival time, dose: 100.0 mg/kg/injection, schedule: Q01DX009 (ip), vehicle: Klucel (hydroxypropylcellulose) (HPC)): 3 of 3

O=C(OCC1OC(n2cnc3cc(Cl)c(Cl)cc32)C(OC(=O)c2ccccc2)C1OC(=O)c1ccccc1)c1ccccc1 (centres undefined)
survivor count [9]: 6 of 6

CCCc1cc(C(C)=O)c[n+](C2OC(COC(=O)c3ccccc3)C(OC(=O)c3ccccc3)C2O)c1 (centres undefined)
survivor count (T/C endpoint: mean survival time, dose: 100.0 mg/kg/injection, schedule: Q01DX005 (ip), vehicle: distilled water + Tween-80): 3 of 6 | survivor count [9]: 1 of 6

COc1ccc2c(c1)n([O-])c1ccccc1[n+]2=O
T/C (T/C endpoint: median survival time, dose: 100.0 mg/kg/injection, schedule: Q01DX005 (ip), vehicle: saline with Tween-80): 129 and 135 % of control [5 of 6 alive] | survivor count (T/C endpoint: median survival time, dose: 167.0 mg/kg/injection, schedule: Q01DX005 (ip), vehicle: saline with Tween-80): 0 of 5 | survivor count (T/C endpoint: median survival time, dose: 200.0 mg/kg/injection, schedule: Q01DX005 (ip), vehicle: saline with Tween-80): 0 of 6 | survivor count (T/C endpoint: median survival time, dose: 277.78 mg/kg/injection, schedule: Q01DX005 (ip), vehicle: saline with Tween-80): 0 of 6 | survivor count (T/C endpoint: median survival time, dose: 278.0 mg/kg/injection, schedule: Q01DX005 (ip), vehicle: saline with Tween-80): 0 of 5

From PubChem BioAssay AID256 (DTP/NCI, 2004)
